Measurements published in paper PMC3584034.
Construct, isoform or probe ends are uncertain for at least one entry. Where cells or extracts were used, other partners may take part. For part of these data: No signal at the amounts used counts as a negative. For part of these data: At least one verdict was read from the data and is not stated in words by the source.

Legend:
[1] = target: T1, EpCAM (human (breast and colon cancer cell lines)) (UniProt P16422); assay: flow cytometry; settings: T47D, MCF-7, MDA-MB-231, HT-29 cells, 100 nM, 2'-fluoropyrimidine (Methods: 2'-fluoropyrimidine or 2'-O-methyl-pyrimidine bases), 3' inverted dT, flow cytometry: 100 nM aptamer, 30 min, 37 C, protein on the cell surface
T1 sequence: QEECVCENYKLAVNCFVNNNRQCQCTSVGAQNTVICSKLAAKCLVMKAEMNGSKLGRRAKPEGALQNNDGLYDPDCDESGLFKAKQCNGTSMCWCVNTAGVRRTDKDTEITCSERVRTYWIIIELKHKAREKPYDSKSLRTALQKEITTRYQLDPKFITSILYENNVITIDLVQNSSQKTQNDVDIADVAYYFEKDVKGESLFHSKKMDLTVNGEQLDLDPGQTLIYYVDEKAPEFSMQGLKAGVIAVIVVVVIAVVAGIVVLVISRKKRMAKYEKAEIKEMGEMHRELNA

[2] = target: T1, EpCAM (human (breast and colon cancer cell lines)); assay: immunofluorescence of FFPE xenograft; settings: 3' inverted dT, FFPE staining: PBS, 5 mM MgCl2, 0.1 mg/mL tRNA, 1 mg/mL BSA, 10% dextran sulphate, 500 ug/mL heparin, 100 nM aptamer, 15 min, 37 C, protein on the cell surface

ACGUAUCCCUUUUCGCGUA [Ep23]
binding result ([1]; label: 5'-TYE665 (fluorescence) or 5'-FITC (chromogenic)): binds
binding result ([2]; T47D 3+, MCF7 2+, MDA-MB-231 1+, HT-29 3+, 100 nM, 5 mM MgCl2, dextran sulphate, heparin, 2'-fluoropyrimidine (Methods: 2'-fluoropyrimidine or 2'-O-methyl-pyrimidine bases), label: 5'-TYE665 (fluorescence) or 5'-FITC (chromogenic)): binds

GCGACUGGUUACCCGGUCG [Control aptamer]
binding result ([2]; T47D, MCF7, MDA-MB-231, HT-29 all negative, 2'-O-methyl at the positions marked m (mGCmGACUmGmGUUmACCCmGmGUcmG), same base sequence as DT3, label: 5'-DY647): no binding

GCGACUGGUUACCCGGUCG [DT3]
binding result ([1]; label: 5'-DY647): binds
binding result ([2]; HT-29 xenograft, no staining at 100 nM, attributed to lower affinity, 2'-fluoropyrimidine (Methods: 2'-fluoropyrimidine or 2'-O-methyl-pyrimidine bases), label: 5'-DY647): no binding
binding result ([2]; T47D 2+, MCF7 1+, MDA-MB-231 1+, 100 nM, 5 mM MgCl2, dextran sulphate, heparin, 2'-fluoropyrimidine (Methods: 2'-fluoropyrimidine or 2'-O-methyl-pyrimidine bases), label: 5'-DY647): binds
